The results in this text go back to publication PMC8015059.

By UniProt entry, the sequences of proteins in these tests, tags left out.
UniProt P03165: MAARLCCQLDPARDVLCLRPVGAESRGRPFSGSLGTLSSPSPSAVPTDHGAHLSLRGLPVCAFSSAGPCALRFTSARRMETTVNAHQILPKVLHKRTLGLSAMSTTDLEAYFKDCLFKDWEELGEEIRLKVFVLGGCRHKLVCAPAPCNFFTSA

The assay concerns the target T1, HA-HBP1 (UniProt O60381).
T1 sequence: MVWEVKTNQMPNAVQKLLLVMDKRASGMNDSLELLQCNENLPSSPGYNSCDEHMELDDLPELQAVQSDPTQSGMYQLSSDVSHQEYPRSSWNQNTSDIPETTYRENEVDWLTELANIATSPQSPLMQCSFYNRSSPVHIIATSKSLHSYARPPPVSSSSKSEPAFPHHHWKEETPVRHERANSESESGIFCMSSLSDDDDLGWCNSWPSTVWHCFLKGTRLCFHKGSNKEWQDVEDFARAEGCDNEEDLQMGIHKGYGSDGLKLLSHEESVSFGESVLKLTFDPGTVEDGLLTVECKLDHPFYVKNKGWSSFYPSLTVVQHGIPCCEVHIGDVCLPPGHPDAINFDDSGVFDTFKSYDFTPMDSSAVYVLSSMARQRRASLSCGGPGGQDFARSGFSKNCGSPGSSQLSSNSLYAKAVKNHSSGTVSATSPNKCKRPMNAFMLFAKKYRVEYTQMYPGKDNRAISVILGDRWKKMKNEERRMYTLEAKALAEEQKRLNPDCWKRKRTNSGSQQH
Put plainly: co-IP; 293T cells co-transfected with HA-HBP1 and FLAG-HBx; lysates in IP lysis buffer (25 mM Tris-HCl pH 7.4, 150 mM NaCl, 1% Nonidet P-40, 1 mM EDTA, 5% glycerol) incubated with anti-FLAG or anti-HA antibody and protein A-Sepharose overnight at 4 °C; Western blotting with anti-HA or anti-FLAG. For orientation: A western blot detects proteins with antibodies after separation by electrophoresis.

These are yes or no findings as the source states them, for the method shown. Binding seen in cells or lysates may run through a third protein. Some binding calls cover weakened binding; strength is not graded here. Where a sequence is shown, tags or fusion partners need not be part of it.

FLAG-HBx (from UniProt P03165 1-154): the binding result is listed as “binds”.
